Targets include CCR5/Rluc8 (UniProt P51681); GPR35/NLuc (UniProt Q9HC97); NLuc/NRP1 (UniProt O14786).
Holding throughout (assay): FRET or BRET
In general terms: BRET reads energy transfer from a luciferase to a nearby fluorophore.

Amino acid sequences for entries named in this document (tags omitted). Residues count along the entry.
UniProt P51681: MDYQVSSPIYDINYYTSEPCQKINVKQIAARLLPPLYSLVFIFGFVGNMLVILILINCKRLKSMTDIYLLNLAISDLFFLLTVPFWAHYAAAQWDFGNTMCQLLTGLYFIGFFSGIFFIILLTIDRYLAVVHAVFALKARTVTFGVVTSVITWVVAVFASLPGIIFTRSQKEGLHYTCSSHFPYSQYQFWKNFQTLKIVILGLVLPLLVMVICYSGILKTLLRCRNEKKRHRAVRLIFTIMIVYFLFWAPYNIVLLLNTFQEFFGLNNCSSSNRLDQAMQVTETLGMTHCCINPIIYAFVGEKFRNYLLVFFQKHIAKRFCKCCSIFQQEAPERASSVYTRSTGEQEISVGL
UniProt Q9HC97: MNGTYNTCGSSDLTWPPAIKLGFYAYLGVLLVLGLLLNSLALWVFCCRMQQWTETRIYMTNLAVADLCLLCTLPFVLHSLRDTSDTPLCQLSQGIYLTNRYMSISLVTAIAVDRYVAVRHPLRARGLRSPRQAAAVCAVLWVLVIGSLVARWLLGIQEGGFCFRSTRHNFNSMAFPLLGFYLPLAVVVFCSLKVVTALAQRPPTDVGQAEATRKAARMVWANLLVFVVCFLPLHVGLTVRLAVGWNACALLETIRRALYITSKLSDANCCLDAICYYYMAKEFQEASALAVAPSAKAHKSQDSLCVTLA
UniProt O14786, residues 22-923: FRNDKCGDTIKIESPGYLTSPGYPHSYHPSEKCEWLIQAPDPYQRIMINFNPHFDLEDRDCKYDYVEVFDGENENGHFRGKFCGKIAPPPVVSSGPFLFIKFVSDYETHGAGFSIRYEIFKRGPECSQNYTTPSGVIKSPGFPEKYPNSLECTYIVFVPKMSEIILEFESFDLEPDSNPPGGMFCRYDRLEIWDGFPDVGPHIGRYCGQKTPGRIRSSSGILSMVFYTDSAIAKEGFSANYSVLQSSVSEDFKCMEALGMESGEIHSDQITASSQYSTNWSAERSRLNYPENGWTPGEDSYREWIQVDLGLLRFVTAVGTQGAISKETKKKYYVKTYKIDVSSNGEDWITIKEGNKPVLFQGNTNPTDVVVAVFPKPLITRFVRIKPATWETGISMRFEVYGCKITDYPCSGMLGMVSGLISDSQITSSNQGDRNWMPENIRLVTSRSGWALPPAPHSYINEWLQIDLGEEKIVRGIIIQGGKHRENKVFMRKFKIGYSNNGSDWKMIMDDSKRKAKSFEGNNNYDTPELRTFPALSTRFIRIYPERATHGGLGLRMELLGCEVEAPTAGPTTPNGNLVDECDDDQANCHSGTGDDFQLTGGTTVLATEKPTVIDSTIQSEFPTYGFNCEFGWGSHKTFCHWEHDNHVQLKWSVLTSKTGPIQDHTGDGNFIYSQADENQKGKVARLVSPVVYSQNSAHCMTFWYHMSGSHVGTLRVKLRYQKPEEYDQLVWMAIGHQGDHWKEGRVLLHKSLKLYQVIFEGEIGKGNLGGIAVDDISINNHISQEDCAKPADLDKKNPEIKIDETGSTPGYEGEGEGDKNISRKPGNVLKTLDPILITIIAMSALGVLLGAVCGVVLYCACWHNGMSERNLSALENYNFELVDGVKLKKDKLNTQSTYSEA
UniProt P32121: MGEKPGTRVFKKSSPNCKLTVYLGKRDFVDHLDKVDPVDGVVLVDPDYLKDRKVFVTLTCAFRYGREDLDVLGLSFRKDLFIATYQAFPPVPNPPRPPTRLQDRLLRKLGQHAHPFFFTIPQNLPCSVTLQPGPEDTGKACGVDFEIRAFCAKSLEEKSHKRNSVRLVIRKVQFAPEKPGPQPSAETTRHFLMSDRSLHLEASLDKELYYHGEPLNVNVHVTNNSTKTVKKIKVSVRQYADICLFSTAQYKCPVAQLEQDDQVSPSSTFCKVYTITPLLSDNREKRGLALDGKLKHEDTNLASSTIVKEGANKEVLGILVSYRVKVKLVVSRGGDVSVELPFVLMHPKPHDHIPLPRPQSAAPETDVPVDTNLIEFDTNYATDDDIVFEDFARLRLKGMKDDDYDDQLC

These are yes or no findings as the source states them, for the method shown. In cells and extracts the contact can be indirect. Some binding calls cover weakened binding; strength is not graded here.

As for “β-arrestin2/Venus (from UniProt P32121 1-409)”, the binding result in the test with CCR5/Rluc8 and with GPR35/NLuc was “binds” each time.

B1: 24Leu-CXCL17 (ligand)
chain: LNPGVARGHRDRGQASRRWLQEGGQECECKDWFLRAPRRKFMTVSGLPKKQCPCDHFKGNVKKTRHQRHHRKPNKHSRACQQFLKQCQLRSFALPL
Consider B1, for which the binding result with NLuc/NRP1 is on record as “binds”.

(Values after article doi:10.1101/2021.07.05.451109 (bioRxiv, 2021).)
